According to the supplement of paper PMC10849652:
The list shows a part of the results.

Sequences of proteins named here, by UniProt entry; tags and fusion partners are left off. A change or cut given only in a name is not applied to a line headed by its entry.
UniProt Q9UKR5: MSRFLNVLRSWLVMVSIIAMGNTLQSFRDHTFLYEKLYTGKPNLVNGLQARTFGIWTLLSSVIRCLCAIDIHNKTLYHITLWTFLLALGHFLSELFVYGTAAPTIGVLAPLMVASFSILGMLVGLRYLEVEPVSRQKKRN
UniProt Q86YB8: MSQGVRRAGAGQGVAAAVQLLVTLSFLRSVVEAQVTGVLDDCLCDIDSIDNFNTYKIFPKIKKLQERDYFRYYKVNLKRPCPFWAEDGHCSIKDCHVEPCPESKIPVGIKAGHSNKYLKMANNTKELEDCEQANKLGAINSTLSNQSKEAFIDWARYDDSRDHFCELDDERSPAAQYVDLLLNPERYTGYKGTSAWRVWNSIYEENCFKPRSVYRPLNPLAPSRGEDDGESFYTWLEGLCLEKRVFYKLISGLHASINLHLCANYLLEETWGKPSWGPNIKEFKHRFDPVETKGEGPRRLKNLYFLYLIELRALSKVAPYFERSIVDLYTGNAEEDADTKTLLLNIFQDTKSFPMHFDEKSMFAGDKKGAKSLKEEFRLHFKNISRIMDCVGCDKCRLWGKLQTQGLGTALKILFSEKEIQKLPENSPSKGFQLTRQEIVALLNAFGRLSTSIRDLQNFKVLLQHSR
UniProt Q8TBP5: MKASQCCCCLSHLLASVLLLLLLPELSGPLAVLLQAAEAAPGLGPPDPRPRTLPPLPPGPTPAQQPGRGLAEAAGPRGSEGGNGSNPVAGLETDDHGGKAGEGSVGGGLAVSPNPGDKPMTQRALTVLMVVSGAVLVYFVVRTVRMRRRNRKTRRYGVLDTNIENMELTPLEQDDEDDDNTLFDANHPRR
UniProt Q0VG06: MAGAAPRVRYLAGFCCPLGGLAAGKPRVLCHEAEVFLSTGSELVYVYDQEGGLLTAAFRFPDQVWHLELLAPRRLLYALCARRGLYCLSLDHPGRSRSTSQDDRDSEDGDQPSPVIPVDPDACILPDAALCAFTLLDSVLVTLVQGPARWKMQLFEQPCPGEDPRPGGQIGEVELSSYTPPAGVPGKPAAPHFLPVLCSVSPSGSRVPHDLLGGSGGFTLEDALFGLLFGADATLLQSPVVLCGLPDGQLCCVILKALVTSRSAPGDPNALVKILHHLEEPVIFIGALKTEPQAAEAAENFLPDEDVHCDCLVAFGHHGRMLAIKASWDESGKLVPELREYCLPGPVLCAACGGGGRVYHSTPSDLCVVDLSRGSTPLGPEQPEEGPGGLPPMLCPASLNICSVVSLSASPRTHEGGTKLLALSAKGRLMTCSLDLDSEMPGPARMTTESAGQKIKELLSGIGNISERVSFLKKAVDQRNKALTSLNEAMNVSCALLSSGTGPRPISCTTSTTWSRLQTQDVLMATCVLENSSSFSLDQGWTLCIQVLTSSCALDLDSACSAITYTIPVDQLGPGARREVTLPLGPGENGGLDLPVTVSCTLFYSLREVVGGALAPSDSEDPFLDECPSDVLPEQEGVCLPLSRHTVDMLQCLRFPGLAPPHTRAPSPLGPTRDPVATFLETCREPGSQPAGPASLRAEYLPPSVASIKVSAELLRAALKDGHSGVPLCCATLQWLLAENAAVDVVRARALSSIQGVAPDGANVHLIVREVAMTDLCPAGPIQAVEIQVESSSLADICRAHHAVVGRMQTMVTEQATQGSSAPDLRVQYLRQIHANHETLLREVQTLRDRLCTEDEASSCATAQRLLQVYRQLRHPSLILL
UniProt Q01844: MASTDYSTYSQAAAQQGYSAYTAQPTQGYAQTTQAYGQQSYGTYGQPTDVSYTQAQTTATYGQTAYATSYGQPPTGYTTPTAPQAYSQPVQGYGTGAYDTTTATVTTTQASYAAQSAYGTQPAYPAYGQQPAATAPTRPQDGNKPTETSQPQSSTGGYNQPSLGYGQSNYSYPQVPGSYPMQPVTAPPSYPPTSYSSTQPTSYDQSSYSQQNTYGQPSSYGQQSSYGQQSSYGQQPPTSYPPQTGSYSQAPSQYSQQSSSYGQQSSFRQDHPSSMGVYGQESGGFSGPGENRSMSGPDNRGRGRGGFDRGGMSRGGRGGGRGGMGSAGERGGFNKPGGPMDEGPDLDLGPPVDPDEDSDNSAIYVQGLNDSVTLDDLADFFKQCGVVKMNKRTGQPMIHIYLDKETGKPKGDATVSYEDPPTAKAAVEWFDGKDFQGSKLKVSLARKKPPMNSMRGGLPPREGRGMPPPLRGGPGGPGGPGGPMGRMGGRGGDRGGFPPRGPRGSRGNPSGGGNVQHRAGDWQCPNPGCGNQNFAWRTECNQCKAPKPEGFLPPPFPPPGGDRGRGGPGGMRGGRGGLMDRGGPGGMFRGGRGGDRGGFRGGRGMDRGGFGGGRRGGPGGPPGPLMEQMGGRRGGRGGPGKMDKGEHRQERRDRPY
UniProt Q13158: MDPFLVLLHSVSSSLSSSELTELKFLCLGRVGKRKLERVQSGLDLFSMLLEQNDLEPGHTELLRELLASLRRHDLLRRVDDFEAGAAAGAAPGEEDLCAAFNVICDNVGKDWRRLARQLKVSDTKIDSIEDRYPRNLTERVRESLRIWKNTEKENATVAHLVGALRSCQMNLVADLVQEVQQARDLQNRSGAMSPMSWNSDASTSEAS
UniProt Q96RQ1: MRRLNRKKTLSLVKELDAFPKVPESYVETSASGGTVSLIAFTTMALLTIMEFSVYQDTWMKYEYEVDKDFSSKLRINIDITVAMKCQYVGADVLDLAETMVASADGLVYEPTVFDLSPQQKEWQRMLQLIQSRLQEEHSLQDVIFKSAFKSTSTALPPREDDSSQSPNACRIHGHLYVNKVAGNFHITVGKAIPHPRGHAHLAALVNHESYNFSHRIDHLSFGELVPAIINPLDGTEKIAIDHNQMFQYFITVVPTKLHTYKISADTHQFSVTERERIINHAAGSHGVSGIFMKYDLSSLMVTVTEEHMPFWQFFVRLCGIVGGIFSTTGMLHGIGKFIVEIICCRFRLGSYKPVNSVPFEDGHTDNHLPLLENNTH
UniProt Q8TAG9: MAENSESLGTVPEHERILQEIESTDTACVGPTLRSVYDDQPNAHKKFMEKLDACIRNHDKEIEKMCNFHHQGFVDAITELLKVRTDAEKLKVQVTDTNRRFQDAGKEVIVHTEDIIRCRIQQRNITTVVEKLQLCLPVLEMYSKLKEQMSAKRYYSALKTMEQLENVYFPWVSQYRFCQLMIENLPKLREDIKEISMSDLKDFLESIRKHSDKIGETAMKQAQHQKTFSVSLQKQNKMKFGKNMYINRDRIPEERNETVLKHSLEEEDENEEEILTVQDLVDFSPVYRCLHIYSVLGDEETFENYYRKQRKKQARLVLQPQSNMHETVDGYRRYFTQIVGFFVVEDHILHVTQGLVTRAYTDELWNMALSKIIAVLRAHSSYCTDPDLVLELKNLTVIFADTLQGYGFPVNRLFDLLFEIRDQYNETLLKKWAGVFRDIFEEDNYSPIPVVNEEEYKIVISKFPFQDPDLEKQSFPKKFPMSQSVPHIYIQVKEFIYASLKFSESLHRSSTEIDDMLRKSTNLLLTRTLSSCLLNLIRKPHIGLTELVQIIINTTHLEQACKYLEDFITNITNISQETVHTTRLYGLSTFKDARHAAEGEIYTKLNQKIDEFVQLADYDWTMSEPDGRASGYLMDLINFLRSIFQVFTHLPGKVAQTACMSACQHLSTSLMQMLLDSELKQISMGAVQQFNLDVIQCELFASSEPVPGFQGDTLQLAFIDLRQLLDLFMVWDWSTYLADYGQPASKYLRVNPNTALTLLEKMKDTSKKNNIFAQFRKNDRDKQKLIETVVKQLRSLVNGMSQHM
UniProt Q8IYI6: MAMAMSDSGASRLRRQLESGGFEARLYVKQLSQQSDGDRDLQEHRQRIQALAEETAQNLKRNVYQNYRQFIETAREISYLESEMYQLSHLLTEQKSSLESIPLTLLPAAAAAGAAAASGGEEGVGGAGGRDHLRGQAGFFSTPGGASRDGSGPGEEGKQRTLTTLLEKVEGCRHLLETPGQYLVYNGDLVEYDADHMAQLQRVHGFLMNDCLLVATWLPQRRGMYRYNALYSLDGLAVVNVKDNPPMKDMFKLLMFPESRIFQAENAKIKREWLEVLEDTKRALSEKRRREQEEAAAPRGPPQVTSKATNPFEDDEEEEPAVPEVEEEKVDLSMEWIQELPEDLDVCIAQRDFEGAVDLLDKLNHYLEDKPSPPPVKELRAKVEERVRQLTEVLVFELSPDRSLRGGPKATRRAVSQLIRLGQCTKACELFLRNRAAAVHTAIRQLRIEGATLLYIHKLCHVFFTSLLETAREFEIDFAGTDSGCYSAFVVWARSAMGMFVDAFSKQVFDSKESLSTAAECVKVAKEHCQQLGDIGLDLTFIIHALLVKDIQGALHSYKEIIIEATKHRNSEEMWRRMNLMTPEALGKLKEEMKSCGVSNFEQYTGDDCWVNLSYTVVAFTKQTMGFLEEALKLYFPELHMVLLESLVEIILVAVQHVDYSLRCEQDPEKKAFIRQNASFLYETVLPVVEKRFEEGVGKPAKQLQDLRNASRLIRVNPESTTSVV
UniProt Q6P587: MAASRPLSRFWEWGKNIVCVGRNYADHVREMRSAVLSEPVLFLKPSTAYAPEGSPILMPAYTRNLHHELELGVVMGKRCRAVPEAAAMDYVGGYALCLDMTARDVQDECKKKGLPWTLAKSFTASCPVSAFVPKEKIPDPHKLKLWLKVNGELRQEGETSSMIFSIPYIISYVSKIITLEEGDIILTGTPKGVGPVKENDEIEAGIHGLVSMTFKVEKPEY
UniProt Q13216, whole entry, looked up: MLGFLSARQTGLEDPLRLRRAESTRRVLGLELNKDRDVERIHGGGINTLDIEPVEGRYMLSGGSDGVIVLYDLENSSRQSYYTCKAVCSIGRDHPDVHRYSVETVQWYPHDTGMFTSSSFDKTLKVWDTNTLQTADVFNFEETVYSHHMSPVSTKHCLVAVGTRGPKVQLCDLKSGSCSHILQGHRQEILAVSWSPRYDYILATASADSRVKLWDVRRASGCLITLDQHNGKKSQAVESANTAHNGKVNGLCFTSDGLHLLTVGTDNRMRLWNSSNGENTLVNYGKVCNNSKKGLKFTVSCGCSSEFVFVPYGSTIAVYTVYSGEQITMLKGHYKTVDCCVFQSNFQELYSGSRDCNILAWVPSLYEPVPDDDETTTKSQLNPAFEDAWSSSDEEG
UniProt Q96HE7: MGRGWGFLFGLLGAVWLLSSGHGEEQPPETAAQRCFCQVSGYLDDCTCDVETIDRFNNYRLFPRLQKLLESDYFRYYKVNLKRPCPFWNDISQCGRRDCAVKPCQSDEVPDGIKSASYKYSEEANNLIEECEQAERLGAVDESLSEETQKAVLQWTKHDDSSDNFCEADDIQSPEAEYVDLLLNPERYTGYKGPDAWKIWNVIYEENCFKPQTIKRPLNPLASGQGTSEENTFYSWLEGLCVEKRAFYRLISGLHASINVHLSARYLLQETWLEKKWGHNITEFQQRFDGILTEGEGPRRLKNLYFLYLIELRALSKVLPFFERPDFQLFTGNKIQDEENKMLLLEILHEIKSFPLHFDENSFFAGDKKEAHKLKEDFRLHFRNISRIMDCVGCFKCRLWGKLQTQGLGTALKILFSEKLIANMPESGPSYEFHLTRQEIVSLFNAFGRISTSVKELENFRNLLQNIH
UniProt Q5BKY9: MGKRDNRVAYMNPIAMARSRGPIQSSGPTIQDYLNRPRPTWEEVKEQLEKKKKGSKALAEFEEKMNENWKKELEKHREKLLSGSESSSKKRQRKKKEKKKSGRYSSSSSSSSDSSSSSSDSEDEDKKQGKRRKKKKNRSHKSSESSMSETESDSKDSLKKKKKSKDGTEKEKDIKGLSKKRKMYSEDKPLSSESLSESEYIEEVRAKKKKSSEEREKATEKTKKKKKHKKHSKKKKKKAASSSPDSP
UniProt Q96A26: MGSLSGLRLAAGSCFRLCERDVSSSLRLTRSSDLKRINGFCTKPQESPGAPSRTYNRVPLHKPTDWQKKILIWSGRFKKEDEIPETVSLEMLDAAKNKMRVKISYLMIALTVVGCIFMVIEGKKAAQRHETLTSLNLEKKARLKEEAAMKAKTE
UniProt Q01469, whole entry, looked up: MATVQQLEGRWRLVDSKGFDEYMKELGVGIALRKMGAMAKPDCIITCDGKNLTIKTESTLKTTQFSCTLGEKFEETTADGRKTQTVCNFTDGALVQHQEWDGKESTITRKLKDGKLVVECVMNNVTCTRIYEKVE
UniProt P07099: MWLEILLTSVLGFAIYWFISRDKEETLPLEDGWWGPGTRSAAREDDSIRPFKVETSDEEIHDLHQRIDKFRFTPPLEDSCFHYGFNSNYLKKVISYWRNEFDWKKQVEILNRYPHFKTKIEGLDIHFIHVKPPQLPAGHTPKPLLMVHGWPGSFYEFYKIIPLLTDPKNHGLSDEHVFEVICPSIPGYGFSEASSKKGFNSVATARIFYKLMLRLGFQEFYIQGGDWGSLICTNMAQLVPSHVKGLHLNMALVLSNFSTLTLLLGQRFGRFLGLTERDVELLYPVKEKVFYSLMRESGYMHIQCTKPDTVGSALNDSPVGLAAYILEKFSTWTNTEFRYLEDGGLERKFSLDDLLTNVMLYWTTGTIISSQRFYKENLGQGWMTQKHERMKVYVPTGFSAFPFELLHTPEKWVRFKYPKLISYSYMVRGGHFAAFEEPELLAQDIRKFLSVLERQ

The targets below were run with COC1=CC=C(C=C1)CN2C=CC3=C2C=C(C=C3)C(=O)NO (assay: log2 fold change, soluble protein after heating vs DMSO (PISA); higher = thermal stabilisation; K562 cells, 10 uM, 30 min; active = over 0.2 and 3.5 SD of the protein, either way, in both replicates (recomputed)).
Summary of the method: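 K562 cells at 2×10^6 cells/mL were given 10 μM compound for 30 min. Aliquots then went through 3 min of heating across 48°C-58°C, were pooled, and were extracted in PBS with 0.5% NP-40 at 4°C, and the supernatant after 21,000xg for 90 min was quantified by TMTpro 16plex LC-MS/MS with channel sums equalised. Thermal stability relative to control samples, from duplicates, is given as log2 fold change.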

log2 fold change, inactive:
ERG28 (UniProt Q9UKR5) -0.12
ERO1B (UniProt Q86YB8) -0.105
FAM174A (UniProt Q8TBP5) -0.004
FAAP100 (UniProt Q0VG06) -0.008
FAM160B1 (UniProt Q5W0V3) 0.026
ERAL1 (UniProt O75616) 0.093
EWSR1 isoform 5 (UniProt Q01844) 0.014
FADD (UniProt Q13158) -0.041
FADS1 (UniProt F5GYH4) -0.373
ERGIC2 (UniProt Q96RQ1) 0.092
EPS15L1 isoform 2 (UniProt Q9UBC2) 0.029
EXOC6 (UniProt Q8TAG9) -0.021
F2 (UniProt P00734) 0.047
EPS15L1 (UniProt M0QY01) -0.129
EXOC8 (UniProt Q8IYI6) 0.005
FAHD1 (UniProt Q6P587) -0.029
ERP29 (UniProt P30040) 0.016
ERCC8 (UniProt Q13216) -0.02
ERO1A (UniProt Q96HE7) -0.044
EXOSC3 (UniProt Q9NQT5) 0.012
FAM133B (UniProt Q5BKY9) -0.121
EPHA6 (UniProt Q9UF33) -0.597
ERCC6 (UniProt Q03468) -0.067
FAM162A (UniProt Q96A26) -0.077
FABP5 (UniProt Q01469) 0.013
EPRS (UniProt P07814) -0.009
FAM136A (UniProt Q96C01) 0.036
EPHX1 (UniProt P07099) 0.002
EPM2AIP1 (UniProt Q7L775) -0.026
EXOSC8 (UniProt Q96B26) -0.001
ESRRA (UniProt P11474) -0.083
EPCAM (UniProt P16422) 0.008
FAM118A (UniProt Q9NWS6) 0.213

Pulled one by one from the entries so far:
log2 fold change, inactive:
FAM133B (UniProt Q5BKY9) -0.121
ERCC6 (UniProt Q03468) -0.067
ERO1A (UniProt Q96HE7) -0.044
